# Measurements reported in publication PMC9778704.
# Sequences of proteins named here, by UniProt entry; tags and fusion partners are left off.
# UniProt Q14764: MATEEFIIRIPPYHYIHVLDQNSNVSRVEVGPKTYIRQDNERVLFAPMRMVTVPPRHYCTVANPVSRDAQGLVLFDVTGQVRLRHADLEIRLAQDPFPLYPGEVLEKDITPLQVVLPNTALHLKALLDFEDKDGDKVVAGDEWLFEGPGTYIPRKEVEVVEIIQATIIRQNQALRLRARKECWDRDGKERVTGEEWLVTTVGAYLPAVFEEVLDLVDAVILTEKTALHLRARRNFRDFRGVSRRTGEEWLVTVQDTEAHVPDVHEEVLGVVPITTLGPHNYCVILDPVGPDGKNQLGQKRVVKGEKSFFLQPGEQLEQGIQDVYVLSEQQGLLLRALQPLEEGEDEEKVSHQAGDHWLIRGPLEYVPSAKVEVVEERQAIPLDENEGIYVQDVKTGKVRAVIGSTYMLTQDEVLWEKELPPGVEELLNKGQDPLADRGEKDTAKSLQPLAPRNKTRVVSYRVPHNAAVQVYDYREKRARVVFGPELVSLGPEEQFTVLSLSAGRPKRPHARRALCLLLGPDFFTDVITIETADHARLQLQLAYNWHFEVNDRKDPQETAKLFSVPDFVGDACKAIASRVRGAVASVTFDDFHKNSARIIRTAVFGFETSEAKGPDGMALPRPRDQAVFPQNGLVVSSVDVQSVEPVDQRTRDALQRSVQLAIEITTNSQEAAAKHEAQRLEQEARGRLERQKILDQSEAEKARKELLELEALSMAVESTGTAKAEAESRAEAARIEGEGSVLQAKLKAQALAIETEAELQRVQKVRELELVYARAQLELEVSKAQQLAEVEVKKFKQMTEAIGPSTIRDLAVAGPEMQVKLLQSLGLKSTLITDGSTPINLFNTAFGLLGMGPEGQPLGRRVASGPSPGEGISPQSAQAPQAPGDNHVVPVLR
# No constants are given. Whether binding was seen depends on the method and setting. Binding seen in cells or lysates may run through a third protein. Some results given as binding are weak or reduced against the parent protein; the word gives no strength. Sequences can lack the tags named with a protein.
# B1: GFP-INT (eGFP fused to the INT domain of poly-(ADP-ribose) polymerase 4) (domain or fragment, UniProt Q9UKK3 1562-1724)
# chain: VCIQHWQDAVPWTELLSLQTEDGFWKLTPELGLILNLNTNGLHSFLKQKGIQSLGVKGRECLLDLIATMLVLQFIRTRLEKEGIVFKSLMKMDDASISRNIPWAFEAIKQASEWVRRTEGQYPSICPRLELGNDWDSATKQLLGLQPISTVSPLHRVLHYSQG
# Target: MVP-H6 (human major vault protein with a C-terminal histidine tag) (human) (UniProt Q14764)
# Assay: pull-down; soluble fractions of E. coli lysates with MVP-H6 and with GFP-INT mixed 60 min on ice; MVP-H6 captured by its His tag on TALON cobalt IMAC resin, washed and eluted with imidazole in PBS; fractions read by SDS-PAGE and Western blot (anti-His, anti-GFP); control: GFP-INT with PBS only
binder,measurement,value
B1,binding,binds
